Test results reported in PMC3919578.
No constants are given. Whether binding was seen depends on the method and setting. Some entries that bind do so weakly or less than the wild type. Tags and fused reporters may be left off the sequences shown.

T1: MBP–CENP–T (chicken CENP–T amino acids 531–639 fused to MBP) (chicken) (UniProt F1NPG5)
T1 sequence: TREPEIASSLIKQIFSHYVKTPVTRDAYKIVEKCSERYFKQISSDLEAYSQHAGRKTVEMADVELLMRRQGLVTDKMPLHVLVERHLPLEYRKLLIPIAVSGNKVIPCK

T2: MBP–CENP–T–W complex (chicken) (UniProt F1NPG5+P0DJH6)
T2 sequence 1: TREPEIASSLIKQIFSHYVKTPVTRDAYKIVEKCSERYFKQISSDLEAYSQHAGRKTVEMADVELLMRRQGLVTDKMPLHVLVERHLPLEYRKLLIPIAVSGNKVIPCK
T2 sequence 2: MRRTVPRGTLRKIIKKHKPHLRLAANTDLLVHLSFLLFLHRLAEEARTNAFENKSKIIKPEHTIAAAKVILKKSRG


Key:
[1] = target: T1, MBP–CENP–T (chicken CENP–T amino acids 531–639 fused to MBP) (chicken); test: co-purification (amylose resin, then gel filtration); MBP–CENP–T and CENP–W co-expressed in bacteria; held by MBP on amylose resin
[2] = target: T2, MBP–CENP–T–W complex (chicken); test: native gel or EMSA; complexes mixed with 100 bp DNA from pUC119 (1.25 µM), incubated 15 min at 37°C, 5%–20% gradient native polyacrylamide gel, ethidium bromide; proteins extracted from the bands and run on SDS–PAGE (silver stain); also after cleavage of MBP by TEV protease (50 mM Tris–HCl pH 7.5, 100 mM NaCl, 1 mM EDTA, 1 mM DTT, 30 min at 30°C); both purified

| binding [1] | binding [2] | Binder |
| --- | --- | --- |
| binds |  | CENP–W (chicken) (protein, UniProt P0DJH6 1-76) MRRTVPRGTLRKIIKKHKPHLRLAANTDLLVHLSFLLFLHRLAEEARTNAFENKSKIIKPEHTIAAAKVILKKSRG |
|  | binds | CENP–S–X complex (chicken) (complex, UniProt E1BSW7 1-139; P0DJH7 1-80) chain 1: MEAAGGEQRELLIQRLRAAVHYTTGCLCQDVAEDKGVLFSKQTVAAISEITFRQCENFARDLEMFARHAKRSTITSEDVKLLARRSNSLLKYITQKSDELASSNMEQKEKKKKKSSAAKGRKTEENETPVTESEDSNMA chain 2: MEEREGGFRKETVERLLRLHFRDGRTRVNGDALLLMAELLKVFVREAAARAARQAQAEDLEKVDIEHVEKVLPQLLLDFV |
